Measurements taken from article PMC3631187, “Structural and Functional Insights into Saccharomyces cerevisiae Riboflavin Biosynthesis Reductase RIB7” (PLoS ONE, 2013).
These are yes or no findings as the source states them, for the method shown. Some results given as binding are weak or reduced against the parent protein; the word gives no strength. Tags and fused reporters may be left off the sequences shown.

Molecular target: Saccharomyces cerevisiae RIB7 (Saccharomyces cerevisiae) (UniProt P33312)
Experiment: crystal structure; ligand-free ScRIB7 at 2.10 Å and NADPH-soaked crystal at 2.35 Å, space group P2(1)2(1)2(1), two molecules in the asymmetric unit; dimer interface chosen with PISA; both purified

binding: binds
B1: Saccharomyces cerevisiae RIB7 (enzyme)
chain: MSLTPLCEDLPQFLQNYLPNAGQTENTIVPFVTLTYAQSLDARVSRGPGVRTTISHPETKTMTHYLRHHHDGILVGSGTVLADNPGLNCKWGPDPAANSPRPIIIDTKQKWRFDGSKMQELFIKRQGKPPIVVVTSEPIIKEQHVDYAICPINDTTKLVDWKKLFEILKEEFNIRSVMVEGGANVINQLLLRSDIVNSLIITIGSTFLGSSGTEVSPPQTVNLKDMSWWKGITDVVLCARLADD
notes: RIB7, riboflavin biosynthesis reductase of Saccharomyces cerevisiae; RIB7 gene amplified from genomic DNA and cloned BamHI/XhoI into pGEX6p-1; Wild type; A seleno-methionine derivative was used only for phasing; Residues left by the PreScission site after cleavage are not described; also called ScRIB7; riboflavin biosynthesis reductase RIB7; source: E. coli BL21 (DE3), purified …
